Some of the results follow. Rule as the data show it: active = 1.25 or more and inactive = the rest. Single values are uncertain, as repeats are few or missing.
The molecules below were run on Kcc2-LUC knock-in mouse primary cortical neurons (Kcc2 promoter reporter) (assay: Kcc2 promoter-driven luciferase activity relative to vehicle control (fold of vehicle (ratio)); higher = stronger Kcc2 promoter activation (Kcc2 expression enhancer)). Settings: 100 nM; 48 h.

Row | Structure (SMILES) | Kcc2 promoter-driven luciferase activity
1 | O=c1oc2ccccc2cc1-c1ccc([N+](=O)[O-])cc1 [2H-1-Benzopyran-2-one,3-(4-nitrophenyl)-] | inactive: 0.27
2 | CCCCCCCCCCSCC(CO)NC(=O)/C=C/c1c(C)[nH]c(=O)[nH]c1=O (stereo not given) | inactive: 1
3 | N#CC(C#N)=Cc1cccc(Oc2ccccc2)c1 [2-[(3-phenoxyphenyl)methylidene]propanedinitrile] | inactive: 1.04
4 | CC1=C(/C=C/C(C)=C/C=C/C(C)=C/C=C/C=C(C)/C=C/C=C(C)/C=C/C2=C(C)CCCC2(C)C)C(C)(C)CCC1 [Beta-Carotene] | inactive: 0.953
5 | Cc1ccc(S(=O)(=O)c2ccccc2[N+](=O)[O-])cc1 [1-Nitro-2-tosylbenzene] | inactive: 0.732
6 | CN(C)C(=S)/N=c1\ss/c(=N\C(=S)N(C)C)n1-c1ccc2c(c1)OCO2 | inactive: 1.03
7 | CCCCCCCCCCCCCCCCOP(=O)([O-])OCC[N+](C)(C)C [Miltefosine] | inactive: 1.19
8 | CC(C)(O)CCC(O)C(C)(O)C1CCC2(O)C3=CC(=O)C4(O)CC(O)C(O)CC4(C)C3CCC12C.CC(C)(O)CCC(O)C(C)(O)C1CCC2(O)C3=CC(=O)C4CC(O)C(O)CC4(C)C3CCC12C (stereo not given) [Polypodies A & B] | inactive: 1.16
9 | CCOC(=O)CCc1c(C)c2c(O)cc(O)cc2oc1=O [Ethyl 3-(5,7-dihydroxy-4-methyl-2-oxochromen-3-yl)propanoate] | active: 1.72
10 | Cc1ccc2c(ccc(C=Cc3ccc(O)c4ncccc34)[n+]2C)c1 [Quinolinium,6-methyl-, iodide] | inactive: 0.4

Random excerpt: two compounds from above.
Row | Structure (SMILES) | Kcc2 promoter-driven luciferase activity
10 | Cc1ccc2c(ccc(C=Cc3ccc(O)c4ncccc34)[n+]2C)c1 [Quinolinium,6-methyl-, iodide] | inactive: 0.4
3 | N#CC(C#N)=Cc1cccc(Oc2ccccc2)c1 [2-[(3-phenoxyphenyl)methylidene]propanedinitrile] | inactive: 1.04
